These are yes or no findings as the source states them, for the method shown. For part of these data: In cells and extracts the contact can be indirect. Some results given as binding are weak or reduced against the parent protein; the word gives no strength. For part of these data: Tags and fused reporters may be left off the sequences shown.
Columns and labels:
[1] = target: FliP (Salmonella enterica serovar Typhimurium) (UniProt P54700); experiment: cryo-EM structure; FliP, FliQ and FliR-His co-expressed in Salmonella SJW1368, complex solubilised with LMNG, purified and reconstituted in a peptidisc; single-particle analysis, C1 symmetry, 3.0 Å, closed form
[2] = target: T1, FliR-His (Salmonella enterica serovar Typhimurium) (UniProt P54702); experiment: as above
T1 sequence: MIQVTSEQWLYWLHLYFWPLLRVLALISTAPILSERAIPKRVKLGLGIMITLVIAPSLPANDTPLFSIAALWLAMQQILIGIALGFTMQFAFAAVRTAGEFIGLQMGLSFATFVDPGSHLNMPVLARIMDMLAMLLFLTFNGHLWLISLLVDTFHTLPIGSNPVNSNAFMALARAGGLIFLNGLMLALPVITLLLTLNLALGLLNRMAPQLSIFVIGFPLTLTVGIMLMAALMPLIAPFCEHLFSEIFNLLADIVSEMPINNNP

[3] = target: T1, FliR-His (Salmonella enterica serovar Typhimurium); experiment: negative-stain EM; purified FliP(L92A)QR-His complex compared with the wild-type complex
[4] = target: T1, FliR-His (Salmonella enterica serovar Typhimurium); experiment: pull-down + SEC; co-purification with FliR-His by Ni affinity chromatography, followed by size exclusion chromatography; complex solubilised with LMNG

Measured: binding

B1: FliP (natural protein)
chain: QLPGLISQPLAGGGQSWSLSVQTLVFITSLTFLPAILLMMTSFTRIIIVFGLLRNALGTPSAPPNQVLLGLALFLTFFIMSPVIDKIYVDAYQPFSEQKISMQEALDKGAQPLRAFMLRQTREADLALFARLANSGPLQGPEAVPMRILLPAYVTSELKTAFQIGFTIFIPFLIIDLVIASVLMALGMMMVPPATIALPFKLMLFVLVDGWQLLMGSLAQSFYS
notes: FliP, Salmonella enterica serovar Typhimurium; signal peptide (residues 1 to 21) cleaved between Ala-21 and Gln-22 during membrane insertion; the mature protein begins at Gln-22; Five copies of FliP stand in the FliP5-FliQ4-FliR1 complex; also called mature FliP; FliP^1; source: membranes solubilised with 1% LMNG; reconstituted in a peptidisc
binds: [1] | [2] | [3] | [4]

B2: FliQ (protein, UniProt P0A1L5 1-89)
chain: MTPESVMMMGTEAMKVALALAAPLLLVALITGLIISILQAATQINEMTLSFIPKIVAVFIAIIVAGPWMLNLLLDYVRTLFSNLPYIIG
binds: [3] | [4]

From PMC12403130, “A β-cap on the FliPQR protein-export channel acts as the cap for initial flagellar rod assembly” (Proceedings of the National Academy of Sciences of the …, 2025)
